PubChem BioAssay AID588781 | Weizmann Institute – 2011
Test: 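Tyrosine kinases that adjust fibroblast polarity according to substrate rigidity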. System: human foreskin fibroblasts (HFF). Reagent: siRNA against human genes. Treatment: cells plated on fibronectin-coated silicone of high versus low stiffness (range about 2 MPa to 5 kPa). Measured: 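Imaging of phalloidin-labelled cells on fibronectin-coated silicone, stiff about 2 MPa or soft about 5 kPa; elongation, stress fibres, stable edges, each also as (stiff − soft)/stiff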. Scale: stiff-soft elongation difference: higher = elongation depends more strongly on substrate stiffness.
Shown is one part, drawn at random, of 85 deposited reagents. 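Knockdowns of interest may either weaken or strengthen the stiffness dependence of elongation, so both low and high differences matter.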 Not all columns of the deposit are shown. Not given: the amount of reagent, the time to read-out.

gene | PubChem SID | stiff-soft elongation difference
ROR2 | SID125333590 | 0.12
TNK1 | SID125333598 | 0.32
BMX | SID125333524 | 0.28
ERBB4 | SID125333546 | 0.07
BLK | SID125333523 | 0.21
FER | SID125333547 | 0.11
LTK | SID125333570 | 0.08
DDR2 | SID125333530 | 0.53
ROR1 | SID125333589 | 0.38
EPHB4 | SID125333542 | 0.14
ROS1 | SID125333591 | 0.35
IGF1R | SID125333560 | 0.35
HCK | SID125333559 | 0.33
EPHA1 | SID125333533 | 0.29
PDGFRB | SID125333581 | 0.32
EPHA3 | SID125333535 | 0.24
FGFR2 | SID125333550 | 0.24
TP53RK | SID125333526 | 0.19
EPHA2 | SID125333534 | 0.2
LYN | SID125333571 | 0.2
YES1 | SID125333602 | 0.26
ALK | SID125333521 | 0.28
EPHB6 | SID125333543 | 0.22
LCK | SID125333569 | 0.32

Laid out differently: results already given.
gene	PubChem SID	stiff-soft elongation difference
ERBB4	SID125333546	0.07
BLK	SID125333523	0.21
FER	SID125333547	0.11
LTK	SID125333570	0.08

Next entries:
gene | PubChem SID | stiff-soft elongation difference
NTRK1 | SID125333577 | 0.35
FES | SID125333548 | 0.21
CSF1R | SID125333527 | 0.02
LMTK2 | SID125333568 | 0.22
MET | SID125333574 | 0.38
TEK | SID125333596 | 0.28
TNK2 | SID125333520 | 0.28
MATK | SID125333572 | 0.29
TIE1 | SID125333597 | 0.14
MERTK | SID125333573 | 0.2
TEC | SID125333595 | 0.36
TWF2 | SID125333587 | 0.3
ABL1 | SID125333518 | 0.28
